Measurements reported in PubChem BioAssay AID2685 (National Center for Advancing Translational Sciences (NCATS), 2010).
This is one part of the list. Further columns of the screen follow, without active or inactive calls. Compounds called inactive in the main read-out are mostly missing here. The note in brackets gives the kind of curve behind each potency; many fits are weak.

Experiment: qHTS Assay for Lipid Storage Modulators in Drosophila S3 Cells;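 as to cell number change: cells counted by Cell Tracker Red CMTPX staining in the red channel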
Settings: BODIPY lipid droplet fluorescence, 18-24 h; for cell number change: measured here: cell count max response, cells fed with added oleic acid
Procedure, shortened: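 Drosophila S3 cells loaded with oleic acid (400 uM, as added) and compounds at several concentrations; lipid droplets imaged by 488-nm laser-scanning cytometry, 500–530 nm intensity and object ratio to cell channel. Percent activity normalized to 20 uM Triacsin C.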

[1] = measured here: cell number channel AC50, cells fed with added oleic acid
[2] = measured here: lipid fluorescence (Fed channel) AC50, cells fed with added oleic acid

Structure (SMILES) | cell number change | AC50 [1] | AC50 [2]
S=C(NCc1ccco1)Nc1cc(-c2ccccc2)[nH]n1 | -17.8% | 116 nM [falling, full curve, poor fit] | 146 nM [falling, full curve, poor fit]
Cc1ccc(CN2CCN(/N=C\c3cccc([N+](=O)[O-])c3)CC2)cc1 | 18.1% |  | 2310 nM [rising, single point]
O=C(NCCN1CCNC1=O)C1CCC(=O)N(Cc2ccccc2F)C1 (stereo not given) | 22.3% |  | 20600 nM [rising, partial curve]
Cn1cc(SCC(=O)NC2CCCCC2)c2ccccc21 | 42.9% |  | 23100 nM [rising, single point]
COc1ccc(-c2nnc(SCC(=O)c3cccs3)o2)c(OC)c1 | -32.5% | 18400 nM [falling, single point] | 
N#C/C(=N\Nc1ccc(Cl)cc1)C(=O)c1ccsc1 | -16.8% |  | 18400 nM [falling, partial curve]
CCCCSc1nc2c(c(=O)[nH]c(=O)n2C)n1CCc1ccccc1 | -79.8% | 20600 nM [falling, single point] | 
O=C(O)c1ccc(CN(Cc2ccccc2)S(=O)(=O)c2ccc(Cl)cc2)cc1 | 9.52% |  | 29100 nM [rising, single point]
CNC(=O)Cn1nc(C)c2ccccc2c1=O | -5.3% |  | 
COc1ccc(CNC(=O)CSc2nnc(C)c(=O)[nH]2)cc1 | 14.2% |  | 29100 nM [rising, single point]
CCOc1ccc(-c2cc(CCCC(=O)NCc3ccc(C)cc3)no2)cc1 | 1.84% | 2590 nM [rising, partial curve] | 18400 nM [falling, single point]
Cn1c(=O)n(C)c2cc(CNc3ccc(N4CCOCC4)c(C(=O)O)c3)ccc21 | 67.1% | 23100 nM [rising, single point] | 
O=C(CNC(=O)c1ccccc1Cl)NCC(c1cccs1)N1CCOCC1 (stereo not given) | 1.41% |  | 23100 nM [falling, single point]
CCN(CC)Cc1c(O)ccc2c(C)c(CC(=O)OC)c(=O)oc12 | -35.6% | 5800 nM [falling, partial curve, poor fit] | 6510 nM [falling, single point]
Cc1ccc2cc(CCNC(=O)c3cccs3)c(=O)[nH]c2c1 | 12% |  | 1300 nM [rising, full curve]
COc1ccc(N2CCN(c3nc4ccccn4c(=O)c3/C=C(\C#N)S(=O)(=O)c3ccccc3)CC2)cc1 | -7.66% |  | 2910 nM [falling, full curve]
COc1ccc(/C=C/C(=O)c2ccc(NC3=NCCCS3)cc2)cc1OC | 2.84% |  | 14.6 nM [falling, full curve, poor fit]
Cc1ccc(N2CCN(c3ccc(NC(=O)CCC(=O)O)cc3)CC2)cc1 | 6.12% |  | 11600 nM [falling, partial curve, poor fit]
Cc1onc(-c2ccccc2)c1C(=O)N(C)CCc1ccccn1 | 38.1% | 8200 nM [rising, partial curve, poor fit] | 580 nM [rising, partial curve, poor fit]
Cc1ccc(S(=O)(=O)NC(C)C(=O)NC2CCCCCC2)cc1 (stereo not given) | -38.3% | 14600 nM [falling, partial curve] | 8200 nM [falling, partial curve, poor fit]

Structure (SMILES) | cell number change | AC50 [1] | AC50 [2]
CCCCN(C(=O)c1cc(-c2ccco2)nc2ccccc12)c1c(N)n(CCC)c(=O)[nH]c1=O | -1.2% |  | 
CC(C)OC(=O)c1cn(-c2ccccc2)nc1-c1ccc2c(c1)OCCO2 | 56% | 2590 nM [rising, full curve, poor fit] | 
CC(=O)NC(=S)Nc1cccc([N+](=O)[O-])c1 | -31% |  | 
COc1ccc2nc(NC(=O)CSC(C)C(=O)Nc3cc(C)on3)sc2c1 (stereo not given) | -4.53% |  | 4.61 nM [falling, full curve, poor fit]
O=C(NCc1cccnc1)c1ccc(CS(=O)(=O)c2ccc(Br)cc2)o1 |  | 116 nM [rising, full curve, poor fit] | 
CCN(Cc1ccccc1)C(=O)c1cc2c(=O)oc3ccc(C)cc3c2s1 |  |  | 651 nM [rising, full curve, poor fit]
C/C(=N/NS(=O)(=O)c1ccc(C)cc1C)c1c[nH]c2ccccc12 | -29.2% |  | 29100 nM [falling, single point]
CC(C)c1ccc(N2CCN(C(=O)c3ccccc3NC(=O)/C=C\C(=O)O)CC2)cc1 | -3.94% |  | 
COC(=O)C1=C(C)N(C)C(=O)NC1c1ccsc1 (stereo not given) | -33% | 8910 nM [falling, partial curve] | 8910 nM [falling, partial curve]
COC(=O)c1ccccc1OCCCCN1CC(C)OC(C)C1 (stereo not given) | -46.8% | 4.61 nM [falling, full curve, poor fit] | 
COC(=O)c1ccc(CNC(=O)CSc2nc3ccccc3[nH]2)cc1 | -11.8% |  | 
CC/C(=N\Nc1ccnc2cc(Cl)ccc12)c1ccc(O)cc1 | -18.4% |  | 5620 nM [rising, single point]
COc1ccc(-c2cn3cccnc3n2)cc1NC(=O)CC(C)C | -7.28% |  | 6510 nM [falling, single point]
CCCC1C(c2ccc(OC)cc2)C(C#N)(C#N)C2(C#N)CC1(N)NC2=O (stereo not given) | 34.6% | 820 nM [rising, full curve, poor fit] | 
CS(=O)(=O)N(Cc1ccc(Cl)cc1)c1ccc(C(=O)N/N=C/c2cc3ccccc3nc2Cl)cc1 | 30.7% | 2590 nM [rising, full curve] | 
Cc1ccc(OCCNS(=O)(=O)c2ccc(N3CCCC3=O)cc2)cc1C | -30.5% | 29100 nM [falling, single point] | 
Cc1ccc(CN2CCCNC2=O)cc1 | -6.11% |  | 1160 nM [rising, full curve, poor fit]
Cc1cc(C(=O)Cn2nnc(-c3ccc(Cl)cc3)n2)c(C)n1CC1CCCO1 (stereo not given) | -1.62% |  | 51.7 nM [rising, partial curve, poor fit]
CCN(CC)S(=O)(=O)c1cccc(C(=O)NC(C)C(c2cccs2)N2CCCC2)c1 (stereo not given) |  |  | 103 nM [rising, full curve, poor fit]
Cc1ccc(C)c(S(=O)(=O)Nc2ccc(C(=O)N3CCCCC3)cc2)c1 | 8.21% |  | 411 nM [rising, partial curve]

Structure (SMILES) | cell number change | AC50 [1] | AC50 [2]
NC(=O)C(c1ccccc1)c1ccc(C(=O)c2ccccc2)cc1 (stereo not given) | 14.4% |  | 18400 nM [falling, single point]
CCOc1ccccc1N1CCN(C(=O)CC(C)(C)C)CC1 | 12.8% | 103 nM [rising, full curve, poor fit] | 
CN1C(=O)/C(=C/C=C2\SCCN2C)SC1=S | -17.4% |  | 25900 nM [falling, single point]
COc1ccccc1Cn1c(=O)c2ccccc2n2c(SCc3csc(C)n3)nnc12 | -23.8% |  | 1640 nM [rising, partial curve]
COCC1CCCCN1C(=O)c1ccc2nc(Cc3ccc(OC)c(OC)c3)oc2c1 (stereo not given) | -35.1% | 5.17 nM [falling, full curve, poor fit] | 
COc1ccc(NC(=O)c2oc3ccccc3c2NC(=O)C(C)(C)C)cc1 |  |  | 651 nM [rising, single point]
N#Cc1nc(COc2cccc(Cl)c2)oc1N1CCCC1 | -0.408% | 820 nM [falling, full curve, poor fit] | 
COc1ccc(N(C)S(=O)(=O)c2ccc3c(c2)NC(=O)CC(=O)N3)c(OC)c1 | 0.295% |  | 29100 nM [falling, single point]
CCOc1ccc(N(Cc2cc3cc(OC)ccc3[nH]c2=O)C(=O)C2CCCO2)cc1 (stereo not given) | -32.4% | 9200 nM [falling, partial curve] | 
CCCCCCP(=O)(O)c1ccccc1 | 4.46% |  | 651 nM [falling, full curve]
CCOC(=O)C1=C(C)OC(N)=C(C#N)C1c1ccc(C)o1 (stereo not given) |  |  | 820 nM [falling, single point]
CCN1C(=O)/C(=C\c2cccc(OC(=O)c3ccco3)c2)SC1=S | -28.2% |  | 1160 nM [rising, partial curve, poor fit]
CCO[C@@H]1OC(C(=O)NCc2nc3ccccc3[nH]2)=C[C@H](c2csc3ccccc23)[C@H]1CCCO | -42.7% | 10300 nM [falling, partial curve] | 29100 nM [falling, single point]
CC1(C)Cc2c(C#N)c(NCC3CCCO3)nc(-c3ccco3)c2CO1 (stereo not given) | -15.3% |  | 164 nM [rising, full curve, poor fit]
COc1ccc(/C=C/c2cc(C(=O)O)c3ccccc3n2)cc1 | -18.3% | 4.61 nM [falling, full curve, poor fit] | 
O=C(NCc1cccc(Cl)c1)c1ccc2c(c1)SC1=NS(=O)(=O)CCN12 | 157% | 6510 nM [falling, single point] | 580 nM [rising, single point]
COc1ccc(C(=O)OCC(=O)c2ccc(CNC(C)=O)s2)cc1 | 11% |  | 4110 nM [falling, single point]
O=C(NN1CCOCC1)c1ccc(Cl)cc1 |  |  | 920 nM [rising, full curve]
COc1ccc(-c2nc(N3CCN(C)CC3)sc2-c2ccc(OC)cc2)cc1 | 1.3% |  | 580 nM [rising, single point]

Reformatted: entries from further up
COc1ccccc1Cn1c(=O)c2ccccc2n2c(SCc3csc(C)n3)nnc12
  cell number change: -23.8%
  AC50 [2]: 1640 nM [rising, partial curve]
O=C(NCc1cccc(Cl)c1)c1ccc2c(c1)SC1=NS(=O)(=O)CCN12
  cell number change: 157%
  AC50 [1]: 6510 nM [falling, single point]
  AC50 [2]: 580 nM [rising, single point]
